In PMC5996148:
Some of the results follow.

Assays:
Assay in all cases: protein microarray (ProtoArray v5.0), streptavidin-Alexa Fluor 647
Details in all cases: 3'-biotin; 20 mM Tris (pH 7.5), 5 mM MgCl2, 100 mM KCl, 0.1% Tween-20, A/T-rich and random oligonucleotide blockers; temperature not stated; high values mean tight binding
[1] = test system: Baculoviral IAP repeat-containing protein 7 (human)
[2] = test system: Bcl-2-related proline-rich protein (human)
[3] = test system: Beta-2-microglobulin (human)
[4] = test system: Bifunctional protein NCOAT (human)
[5] = test system: Biogenesis of lysosome-related organelles complex 1 subunit 1 (human)
[6] = test system: Branched-chain-amino-acid aminotransferase, mitochondrial (human)
[7] = test system: Breast carcinoma-amplified sequence 4 (human)
[8] = test system: C-C motif chemokine 20 (human)
[9] = test system: C-C motif chemokine 4 (human)
[10] = test system: C-Maf-inducing protein (human)

“GGGGACAGGGGTATGGGGAGGGG [G4-3 biotinylated (CtG)]” was tested. Which binding signal [1] did it give?
The binding signal was -0.336 z-score.

And the binding signal [2]?
Its binding signal is -0.324 z-score.

And the binding signal [3]?
The binding signal was -0.326 z-score.

What about the binding signal [4] of the same sequence?
Its binding signal is -0.333 z-score.

And the binding signal [5]?
Its binding signal is -0.32 z-score.

What about the binding signal [6] of the same sequence?
Its binding signal is -0.343 z-score.

What about the binding signal [7] of the same sequence?
The binding signal was -0.337 z-score.

What about the binding signal [8] of the same sequence?
The binding signal was -0.314 z-score.

And the binding signal [9]?
Its binding signal is -0.322 z-score.

And the binding signal [10]?
Its binding signal is -0.333 z-score.
